Experimental data: patent publication US20250011332A1, “PYRAZOLO FUSED RING COMPOUND AND USE THEREOF” (SOTER BIOPHARMA PTE. LTD., priority 2021, published 2025)
For at least one compound, name, drawing or mass did not settle the structure.

Test system: IL-23 induced psoriasis-like skin lesions in mice
Assay: In vivo drug efficacy test in mouse psoriasis model (IL-23 induced auricular epidermal dysplasia)
Design: species or system C57BL/6 mice
Conditions: 10 and 20 mg/kg
Source text: Purpose: The purpose of this experiment is to evaluate the preventive and therapeutic effect of the test substance on IL-23 induced psoriasis-like skin lesions in mice through the psoriasis-like skin lesions model induced by intradermal injection of IL-23 into the mouse auricle.
Method: After the adaptation period of experimental animals, 50 mice were divided into 5 groups according to the Excel completely random grouping method, with 10 mice in each group, as follows: vehicle (0.5% MC & 0.5% Tween 80) control group, modeling group, compound 1 (10, 20, 50 mg/kg) group. Except for the vehicle control group, the animals in the other groups were intradermally injected with IL-23 (3 μg/10 μL/mouse/day, QD) in their right ears for 8 consecutive days (D1-D8). The animals in the control group were intradermally injected with an equal volume of physiological saline solution (10 μL/mouse/day, QD) in the right ear for 8 consecutive days (D1-D8). For the modeling group, the vehicle and test drug were administered orally at the same time, twice a day (Bid), with an interval of 6 h, for 8 consecutive days (D1-D8). During the dosing period, the animal body weight was monitored every two days. On D1, D3, D5, D7 (all before IL-23 injection), and D9, the thickness of the mouse right ear was measured and the auricle appearance was observed and scored. […]

Cn1cc(-c2cn3nccc3c(-c3cnn([C@]4(CC#N)CC5(C[C@H](C#N)C5)C4)c3)n2)cn1 (stereo partly shown) [Compound 1]
Effect on the ear thickness of the modeling side (in words): significantly reduce the ear thickness of the modeling side of mice starting from day 5
